Results published in the supplement of paper PMC9578143, “Small-Molecule Ebselen Binds to YTHDF Proteins Interfering with the Recognition of N^6-Methyladenosine-Modified RNAs” (ACS Pharmacology & Translational Science, 2022).
The other results are listed elsewhere or left out. Part of the spread comes from offsets between plates or batches.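 Hits were defined as a z-score below −3.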 Non-standard residues stand in square brackets, D forms with d. Residues, ends and D or L forms follow the SMILES beside them. *: point of attachment. NHCH2CH2OH = OCCN*; For = O=C*

biological target: T1, YTHDF1 YTH domain (aa 365-554) (UniProt Q9BYJ9); assay: tryptophan fluorescence intensity z-score (mean); higher = higher fluorescence, less quenching (negative = binding / quenching); details: 10 µM
T1 sequence (whole entry): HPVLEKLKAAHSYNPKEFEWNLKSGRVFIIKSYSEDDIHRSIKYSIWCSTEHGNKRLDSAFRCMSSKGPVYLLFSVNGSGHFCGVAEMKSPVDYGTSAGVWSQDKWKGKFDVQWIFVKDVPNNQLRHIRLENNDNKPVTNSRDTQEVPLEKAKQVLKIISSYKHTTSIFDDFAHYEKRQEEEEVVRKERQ

| Compound | tryptophan fluorescence intensity z-score |
| --- | --- |
| CN(C)c1nc(N(C)C)nc(N(C)C)n1 (plate: M 7-8) | inactive: 0.0106 |
| CC(=O)O[C@]1(C(C)=O)CC[C@H]2[C@@H]3C[C@H](C)C4=CC(=O)CC[C@]4(C)[C@H]3CC[C@@]21C (plate: M 5-6) | inactive: -0.00801 |
| CC(C)NCC(O)c1ccc2ccccc2c1 (centres undefined) (plate: M 21-22) | inactive: 0.95 |
| O.O.O.O.O.O.O.O.O.O.O.O.O.O.O.O.O=S(=O)([O][Al])OC[C@H]1O[C@@](COS(=O)(=O)[O][Al])(O[C@H]2O[C@H](COS(=O)(=O)[O][Al])[C@@H](OS(=O)(=O)[O][Al])[C@H](OS(=O)(=O)[O][Al])[C@H]2OS(=O)(=O)[O][Al])[C@@H](OS(=O)(=O)[O][Al])[C@@H]1OS(=O)(=O)[O][Al] (plate: M 13-14) | inactive: 0.55 |
| c1ccc([C@H]2CN3CCSC3=N2)cc1 (plate: M 7-8) | inactive: -0.0686 |
| CCC(=O)O[C@]1(C(=O)CCl)[C@@H](C)C[C@H]2[C@@H]3CCC4=CC(=O)C=C[C@]4(C)[C@@]3(F)[C@@H](O)C[C@@]21C (plate: M 9-10) | inactive: -0.439 |
| O=C1C[C@@H](c2ccc(O)cc2)Oc2cc(O)cc(O)c21 (plate: M 17-18) | inactive: -0.216 |
| O=C(/C=C/C(=O)Oc1ccccc1C(=O)O)Oc1ccccc1C(=O)O (plate: M 23-24) | inactive: 0.685 |
| NC(=O)c1ccc([N+](=O)[O-])cc1Cl (plate: M 7-8) | inactive: 0.485 |
| O=C1OCCN1/N=C/c1ccc([N+](=O)[O-])o1 (plate: M 3-4) | inactive: -0.285 |
| CC(C)C[C@@H](NC(=O)[C@H](C)NC(=O)CNC(=O)[C@@H](NC=O)C(C)C)C(=O)N[C@@H](C)C(=O)N[C@@H](C(=O)N[C@H](C(=O)N[C@H](C(=O)N[C@@H](Cc1c[nH]c2ccccc12)C(=O)N[C@H](CC(C)C)C(=O)N[C@@H](Cc1c[nH]c2ccccc12)C(=O)N[C@H](CC(C)C)C(=O)N[C@@H](Cc1c[nH]c2ccccc12)C(=O)N[C@H](CC(C)C)C(=O)N[C@@H](Cc1c[nH]c2ccccc12)C(=O)NCCO)C(C)C)C(C)C)C(C)C (plate: M 3-4) (For-VGA[dL]A[dV]VVW[dL]W[dL]W[dL]W-NHCH2CH2OH) | inactive: 1.49 |
| O=c1c(O)c(-c2ccc(O)cc2O)oc2cc(O)cc(O)c12 (plate: M 19-20) | inactive: -0.0341 |
| O=c1c(O)c(-c2ccccc2)oc2cc(O)ccc12 (plate: M 19-20) | inactive: 0.0793 |
| COc1cc(-c2coc3cc(O[C@@H]4O[C@H](CO)[C@@H](O)[C@H](O)[C@H]4O)c(OC)c(O)c3c2=O)cc(O)c1OC (plate: M 15-16) | inactive: 0.118 |
| CC(=O)Oc1cc(OC(C)=O)c2c(c1)O[C@H](c1ccc(OC(C)=O)c(OC(C)=O)c1)[C@H](OC(C)=O)C2 (plate: M 21-22) | inactive: 0.21 |
| O=C1c2ccccc2C(=O)c2c1ccc(O)c2O (plate: M 15-16) | inactive: 0.373 |
| CN1CCN(CCCN2c3ccccc3Sc3ccc(Cl)cc32)CC1 (plate: M 5-6) | inactive: -0.0844 |

| Compound | tryptophan fluorescence intensity z-score |
| --- | --- |
| COC(=O)/C=C/C(C)=C\C=C\C(C)=C\C=C\C=C(C)\C=C\C=C(C)\C=C\C(=O)O (plate: M 21-22) | inactive: -0.143 |
| O=c1oc2ccccc2c(O)c1Cc1c(O)c2ccccc2oc1=O (plate: M 1-2) | inactive: 0.436 |
| CC(=O)O[C@H]1CC[C@@]2(C)[C@@H](CC[C@@H]3[C@@H]2CC(=O)[C@]2(C)[C@@H]4[C@H](C[C@@H]32)O[C@]2(CC[C@@H](C)CO2)[C@H]4C)C1 (plate: M 13-14) | inactive: 0.904 |
| CC[C@@H]1OC(OC(c2cnc[nH]2)C(NC(=O)c2nc(C(CC(N)=O)NCC(N)C(N)=O)nc(N)c2C)C(=O)NC(C)C(O)C(C)C(=O)NC(C(=O)NCCc2nc(-c3nc(C(=O)NCCCCN=C(N)N)cs3)cs2)C(C)O)[C@@H](O[C@H]2O[C@H](CO)[C@@H](O)[C@H](OC(N)=O)[C@@H]2O)[C@@H](C)[C@@H]1C (some centres undefined) [BLEOMYCIN(bleomycinB2shown)] (plate: M 13-14) | inactive: 0.503 |
| Nc1cc(C(Cl)=C(Cl)Cl)c(S(N)(=O)=O)cc1S(N)(=O)=O (plate: M 9-10) | inactive: -0.286 |
| COc1c2occc2c(OC)c2c(=O)cc(C)oc12 (plate: M 15-16) | inactive: 0.01 |
| C1CNCCN1 (plate: M 5-6) | inactive: 0.0611 |
| NNc1nncc2ccccc12 (plate: M 3-4) | inactive: -0.46 |
| NCC(O)CC(=O)O (centres undefined) (plate: M 23-24) | inactive: 0.613 |
| O=C(/C=C/c1ccc(O)c(O)c1)OCCc1ccccc1 (plate: M 21-22) | inactive: -0.313 |
| C[C@H](CCC(=O)O)[C@H]1CC[C@H]2[C@@H]3[C@H](O)C[C@@H]4C[C@H](O)CC[C@]4(C)[C@H]3CC[C@]12C (plate: M 5-6) | inactive: -0.0967 |
| CC(NCCC(c1ccccc1)c1ccccc1)c1ccccc1 (centres undefined) (plate: M 23-24) | inactive: 0.176 |
| Cc1c(N(C)CS(=O)(=O)O)c(=O)n(-c2ccccc2)n1C (plate: M 9-10) | inactive: -0.166 |
| CN(C)[C@@H]1C(O)=C(C(=O)NCN2CCCC2)C(=O)[C@@]2(O)C(O)=C3C(=O)c4c(O)cccc4[C@@](C)(O)[C@H]3C[C@@H]12 (plate: M 11-12) | inactive: -1.07 |
| C[C@@H]1O[C@@H](O[C@H]2[C@H](Oc3cc(O)c4c(=O)cc(-c5ccc(O)cc5)oc4c3)O[C@H](CO)[C@@H](O)[C@@H]2O)[C@H](O)[C@H](O)[C@H]1O (plate: M 19-20) | inactive: -0.102 |
| CCc1cn([C@H]2C[C@H](O)[C@@H](CO)O2)c(=O)[nH]c1=O (plate: M 7-8) | inactive: 0.407 |
| N[C@H]1C(O)O[C@H](CO)[C@@H](O)[C@@H]1O (some centres undefined) (plate: M 3-4) | inactive: 0.0418 |

By substructure, those above containing a furan ring, fused or not (two)

| Compound | tryptophan fluorescence intensity z-score |
| --- | --- |
| O=C1OCCN1/N=C/c1ccc([N+](=O)[O-])o1 (plate: M 3-4) | inactive: -0.285 |
| COc1c2occc2c(OC)c2c(=O)cc(C)oc12 (plate: M 15-16) | inactive: 0.01 |
